The nature of series [1]: general procedure: peptide synthesis; chloro trityl chloride resin (CTL resin, Nova Biochem Cat No. 01-64-0021). As to conditions: whole synthesis, scale of the general procedure 700 mg resin.
Series [2] is described as follows: general procedure: peptide synthesis; chloro trityl chloride resin. Conditions: whole synthesis.

Ends that are not written are not given here.

In series [1], RRKLTFYLKTLE came in with a crude yield of 92.1%.
On to “NCSNMICEIITH (cysteine pairing not given here)”, for which, in series [2], the crude mass is recorded as 0.5 g. The sequence also yielded a crude yield in series [2] (scale of the general procedure 700 mg resin) of 89.9%.

(Values after patent US10669312B2 (CAREGEN CO., LTD., priority 2013, dated 2020).)
